{"source": "patent US20050260153", "system": "VEGF165", "test": "competition with a labelled probe", "conditions": "2'-F on C and U, 2'-OMe on G and A except unmodified ribo A at positions 4 and 5; 5'-5' dT cap and 3'-3' dT cap; inhibition of VEGF165/Flt-1 binding much less effective than PEGylated aptamer (lower steric effect); PBS, 1 mM Ca, 1 mM Mg, 37 C; purified recombinant protein; protein details: 125I-labelled", "note": "The comparison behind a weaker result is the experiment's own reference, which may not be listed here.", "data": [{"sequence": "CGGAAUCAGUGAAUGCUUAUACAUCCG [EYE002 (MacII; 5'-5' capped non-PEGylated VEGF aptamer)]", "values": [{"measurement": "binding result", "value": "binds more weakly"}]}]}
